# Reference: the supplement of paper PMC4604168 (melanoma cell lines)
# The list shows a part of the results. Repeats are few or missing, and single values can be far off.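 Imaging used 1,536-well plates; nuclei positive for cleaved PARP by antibody were divided by total DNA-stained nuclei to yield the apoptosis fraction. Doses for screening kept most cells viable, and cell lines differ markedly in resting and induced cleaved-PARP levels.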
# Experiments:
# Assay in all cases: cleaved PARP positive nuclei fraction relative to DMSO control; melanoma cells; higher = more apoptosis
# Conditions in all cases: library dose: low library concentration; 72 h
# MZ2-MEL = test system: MZ2-MEL
# MeWo = test system: MeWo
# RPMI7951 = test system: RPMI7951
# RVH-421 = test system: RVH-421
# SkMel28 = test system: SkMel28
# SkMel30 = test system: SkMel30
# SkMel5 = test system: SkMel5
# UACC257 = test system: UACC257
# UACC62 = test system: UACC62
# WM115 = test system: WM115
# WM1716 = test system: WM1716
# WM1745 = test system: WM1745
# WM3526 = test system: WM3526
# WM3619 = test system: WM3619
# WM451Lu = test system: WM451Lu
Structure (SMILES),cleaved PARP positive nuclei fraction (MZ2-MEL),cleaved PARP positive nuclei fraction (MeWo),cleaved PARP positive nuclei fraction (RPMI7951),cleaved PARP positive nuclei fraction (RVH-421),cleaved PARP positive nuclei fraction (SkMel28),cleaved PARP positive nuclei fraction (SkMel30),cleaved PARP positive nuclei fraction (SkMel5),cleaved PARP positive nuclei fraction (UACC257),cleaved PARP positive nuclei fraction (UACC62),cleaved PARP positive nuclei fraction (WM115),cleaved PARP positive nuclei fraction (WM1716),cleaved PARP positive nuclei fraction (WM1745),cleaved PARP positive nuclei fraction (WM3526),cleaved PARP positive nuclei fraction (WM3619),cleaved PARP positive nuclei fraction (WM451Lu)
"Cc1cc(N2CCOCC2)cc2[nH]c(-c3c(NC[C@@H](O)c4cccc(Cl)c4)cc[nH]c3=O)nc12 + COc1ccc2c(c1)CCC1C2CCC2(C)C(NCCCCCCN3C(=O)C=CC3=O)CCC12 [U73122] (first compound 0.2 µM, partner dose 0.4 µM)",27.6%,55.3%,42.4%,31.3%,98.5%,204%,49.6%,66.3%,41.2%,131%,26.4%,143%,61.2%,84.2%,64.5%
"Cn1nnc2c(C(N)=O)ncn2c1=O [temozolomide] + CC(C)CCN1c2nc(Nc3cc(F)c(O)c(F)c3)ncc2N(C)C(=O)C1C [BID1870] (first compound 2 µM, partner dose 0.2 µM)",66.4%,54.3%,65.4%,95.4%,150%,121%,28.1%,78.3%,46.7%,143%,81.6%,205%,191%,104%,88.6%
"CO[C@@H]1[C@H](N(C)C(=O)c2ccccc2)C[C@H]2O[C@]1(C)n1c3ccccc3c3c4c(c5c6ccccc6n2c5c31)C(=O)NC4 [Midostaurin] + N#Cc1c(O)c2c(-c3ccc(-c4ccccc4O)cc3)csc2[nH]c1=O [A769662] (first compound 0.08 µM, partner dose 2 µM)",117%,37.8%,43.2%,77.3%,73.6%,177%,68.6%,53.9%,178%,124%,113%,111%,67.2%,81.7%,40.9%
"COc1cc(Nc2ncc(F)c(Nc3ccc4c(n3)NC(=O)C(C)(C)O4)n2)cc(OC)c1OC [Tamatinib] + COc1ccc2c(c1)CCC1C2CCC2(C)C(NCCCCCCN3C(=O)C=CC3=O)CCC12 [U73122] (first compound 0.4 µM, partner dose 0.4 µM)",125%,58.1%,43.9%,44.3%,131%,24.1%,57.6%,188%,233%,306%,90.4%,149%,76.6%,78.4%,123%
"COCC[n+]1c2c(n(Cc3cnccn3)c1C)C(=O)c1ccccc1C2=O + COc1ccc(-c2ccc3c(N4CCOCC4)nc(N4C[C@@H](C)O[C@@H](C)C4)nc3n2)cc1CO [KU0063794] (first compound 0.0004 µM, partner dose 0.02 µM)",476%,65.4%,112%,82.8%,162%,36.4%,92.8%,98.9%,91.2%,40.1%,72.2%,112%,190%,72.3%,84%
"CC(C)(C)c1cnc(CSc2cnc(NC(=O)C3CCNCC3)s2)o1 + COc1cc(N2CCC(N3CCN(C)CC3)CC2)ccc1Nc1ncc(Cl)c(Nc2ccccc2S(=O)(=O)C(C)C)n1 [NVP-TAE684] (first compound 0.01 µM, partner dose 0.08 µM)",115%,85.9%,88.7%,102%,76.6%,43.9%,60.4%,160%,139%,99.4%,93%,126%,61.3%,252%,121%
"CC1(C)NC(=O)N(c2ccc([N+](=O)[O-])c(C(F)(F)F)c2)C1=O [nilutamide] + O=C(Nc1ccccc1)c1cc([N+](=O)[O-])ccc1Cl [GW9662] (first compound 1 µM, partner dose 2 µM)",123%,107%,156%,40.2%,181%,144%,60.2%,111%,215%,109%,64.5%,121%,38.2%,91.6%,222%
"Cc1nc(Nc2ncc(C(=O)Nc3c(C)cccc3Cl)s2)cc(N2CCN(CCO)CC2)n1 [dasatanib] + O=C(O)C(=O)Nc1sc2c(c1C(=O)O)CCNC2 [TCS401] (first compound 0.004 µM, partner dose 1.66667 µM)",59.2%,116%,122%,55.6%,120%,6.97%,72.2%,191%,89.1%,202%,162%,185%,74%,123%,99.3%
"Cc1nc(Nc2ncc(C(=O)Nc3c(C)cccc3Cl)s2)cc(N2CCN(CCO)CC2)n1 [dasatanib] + Oc1nc(-c2ccc(C(F)(F)F)cc2)nc2c1CSCC2 [XAV939] (first compound 0.004 µM, partner dose 2 µM)",175%,239%,157%,129%,154%,14.2%,31.8%,210%,42%,403%,279%,224%,67.4%,107%,31.9%
"CO[C@@H]1[C@H](N(C)C(=O)c2ccccc2)C[C@H]2O[C@]1(C)n1c3ccccc3c3c4c(c5c6ccccc6n2c5c31)C(=O)NC4 [Midostaurin] + CCN(CC)CCCCNc1ncc2cc(-c3cc(OC)cc(OC)c3)c(NC(=O)NC(C)(C)C)nc2n1 [PD173074] (first compound 0.08 µM, partner dose 0.1 µM)",145%,52.6%,41%,65.7%,56.3%,76.1%,29.9%,208%,81.4%,70.3%,94.2%,98.7%,79.3%,68.3%,74.7%
